In publication PMC8315068 one finds binding data, which are given here for five substances.

Sequences of proteins named here, by UniProt entry; tags and fusion partners are left off.
UniProt P04150: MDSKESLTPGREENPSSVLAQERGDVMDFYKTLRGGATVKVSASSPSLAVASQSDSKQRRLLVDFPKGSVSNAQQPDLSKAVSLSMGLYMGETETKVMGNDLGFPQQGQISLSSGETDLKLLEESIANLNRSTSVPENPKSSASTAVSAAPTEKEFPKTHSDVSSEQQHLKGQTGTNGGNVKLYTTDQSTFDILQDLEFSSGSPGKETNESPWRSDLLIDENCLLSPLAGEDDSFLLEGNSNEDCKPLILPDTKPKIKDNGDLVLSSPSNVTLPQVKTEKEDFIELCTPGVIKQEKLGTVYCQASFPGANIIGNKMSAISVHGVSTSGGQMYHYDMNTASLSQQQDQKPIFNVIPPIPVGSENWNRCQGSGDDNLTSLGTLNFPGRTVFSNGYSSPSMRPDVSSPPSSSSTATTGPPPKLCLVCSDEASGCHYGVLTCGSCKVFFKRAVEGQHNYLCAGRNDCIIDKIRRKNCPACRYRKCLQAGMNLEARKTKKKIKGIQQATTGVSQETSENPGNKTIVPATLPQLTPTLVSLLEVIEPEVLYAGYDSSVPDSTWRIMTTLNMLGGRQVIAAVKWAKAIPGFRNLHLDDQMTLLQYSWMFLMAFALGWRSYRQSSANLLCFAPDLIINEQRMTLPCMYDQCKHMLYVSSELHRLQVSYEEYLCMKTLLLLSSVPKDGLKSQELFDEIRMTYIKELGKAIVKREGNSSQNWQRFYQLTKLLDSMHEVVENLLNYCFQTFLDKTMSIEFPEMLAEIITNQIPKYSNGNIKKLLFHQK
UniProt P40763: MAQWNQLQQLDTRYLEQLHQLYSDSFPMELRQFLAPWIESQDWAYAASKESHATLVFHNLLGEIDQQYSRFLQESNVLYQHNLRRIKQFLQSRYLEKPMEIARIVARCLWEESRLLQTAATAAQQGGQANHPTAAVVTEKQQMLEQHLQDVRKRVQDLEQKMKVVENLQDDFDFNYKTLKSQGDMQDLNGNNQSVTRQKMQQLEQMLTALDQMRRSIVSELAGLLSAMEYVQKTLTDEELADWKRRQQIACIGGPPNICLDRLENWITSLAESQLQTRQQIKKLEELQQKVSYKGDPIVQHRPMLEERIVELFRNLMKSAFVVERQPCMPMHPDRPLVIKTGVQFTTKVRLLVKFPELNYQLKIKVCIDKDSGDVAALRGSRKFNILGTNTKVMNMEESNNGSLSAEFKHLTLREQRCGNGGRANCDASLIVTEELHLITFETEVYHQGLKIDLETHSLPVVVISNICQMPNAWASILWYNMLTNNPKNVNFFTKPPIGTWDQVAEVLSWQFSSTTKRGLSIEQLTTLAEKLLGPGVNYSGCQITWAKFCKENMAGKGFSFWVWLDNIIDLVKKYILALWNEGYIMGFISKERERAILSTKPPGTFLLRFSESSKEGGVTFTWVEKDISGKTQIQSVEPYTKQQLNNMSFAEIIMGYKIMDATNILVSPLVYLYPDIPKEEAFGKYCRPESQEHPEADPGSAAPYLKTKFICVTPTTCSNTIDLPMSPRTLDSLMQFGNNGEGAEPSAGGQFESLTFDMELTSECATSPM
UniProt P06537: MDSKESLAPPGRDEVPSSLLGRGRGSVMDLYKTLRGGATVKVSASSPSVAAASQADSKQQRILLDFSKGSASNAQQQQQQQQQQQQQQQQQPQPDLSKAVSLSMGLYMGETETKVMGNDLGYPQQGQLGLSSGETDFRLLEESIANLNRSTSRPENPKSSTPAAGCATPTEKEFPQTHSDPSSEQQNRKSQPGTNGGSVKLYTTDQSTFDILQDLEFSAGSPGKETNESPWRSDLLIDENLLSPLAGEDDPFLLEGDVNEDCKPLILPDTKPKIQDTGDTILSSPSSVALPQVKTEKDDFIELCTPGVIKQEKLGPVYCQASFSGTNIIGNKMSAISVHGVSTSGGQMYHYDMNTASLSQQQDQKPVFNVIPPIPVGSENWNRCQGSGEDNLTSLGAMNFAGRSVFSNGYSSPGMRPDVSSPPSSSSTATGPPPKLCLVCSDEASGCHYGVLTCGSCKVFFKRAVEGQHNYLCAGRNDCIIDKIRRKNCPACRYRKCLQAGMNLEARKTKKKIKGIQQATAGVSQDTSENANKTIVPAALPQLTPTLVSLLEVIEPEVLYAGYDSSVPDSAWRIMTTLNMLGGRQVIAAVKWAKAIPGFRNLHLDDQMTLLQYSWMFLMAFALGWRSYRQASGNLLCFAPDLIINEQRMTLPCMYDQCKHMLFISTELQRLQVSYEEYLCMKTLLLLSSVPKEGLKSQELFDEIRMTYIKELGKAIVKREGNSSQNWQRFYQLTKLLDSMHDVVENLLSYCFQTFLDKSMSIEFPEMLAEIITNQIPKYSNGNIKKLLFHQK

Results are given in words; binding and its absence hold for the method and conditions named. For some of these results: Binding seen in cells or lysates may run through a third protein. Some results given as binding are weak or reduced against the parent protein; the word gives no strength. For some of these results: Where a sequence is shown, tags or fusion partners need not be part of it.

For assay [1], the target named is recombinant (r) GR (glucocorticoid receptor) (UniProt P04150). Briefly: ELISA; competitive ELISA: plate coated with rGR (10 µg/ml); rCortisol-His (1 µg/ml) mixed with rTW1 (from 1 µg/ml, 1:50 to 1:3200), 37 °C 1 h; HRP anti-His Ab, absorbance at 450 nm; both purified.
The target in assay [2] is Twist1 protein (TW1), endogenous in cells isolated from human colon tissue (human (endogenous in colon tissue cells of patients)) (UniProt Q15672). Briefly: co-IP; T cells isolated from CR UC colon samples (Figure S6).
Assay [3] has the same target. Briefly: co-IP; B cells isolated from CR UC colon samples (Figure S6).
The target is the same in assay [4]. Briefly: co-IP; protein extracts of colon neutrophils of CS UC patients (pooled, n = 12); antibodies of GRα or TW1 as precipitation Ab, protein G agarose beads, Western blot.
The target is the same in assay [5]. Briefly: co-IP; eosinophils isolated from CR UC colon samples (Figure S6).
Assay [6] has the same target. The assay is described as follows: co-IP; protein extracts of colon neutrophils of NC (non-UC control) subjects (pooled, n = 8); antibodies of GRα or TW1 as precipitation Ab, protein G agarose beads, Western blot.
Assay [7] has the same target. Briefly: co-IP; protein extracts of colon neutrophils of CR UC patients (pooled, n = 19); antibodies of GRα or TW1 as precipitation Ab, protein G agarose beads, Western blot. In general terms: A western blot detects proteins with antibodies after separation by electrophoresis.
Assay [8] concerns the target T1, recombinant (r) RASAL1 with His tag (UniProt O95294).
T1 sequence: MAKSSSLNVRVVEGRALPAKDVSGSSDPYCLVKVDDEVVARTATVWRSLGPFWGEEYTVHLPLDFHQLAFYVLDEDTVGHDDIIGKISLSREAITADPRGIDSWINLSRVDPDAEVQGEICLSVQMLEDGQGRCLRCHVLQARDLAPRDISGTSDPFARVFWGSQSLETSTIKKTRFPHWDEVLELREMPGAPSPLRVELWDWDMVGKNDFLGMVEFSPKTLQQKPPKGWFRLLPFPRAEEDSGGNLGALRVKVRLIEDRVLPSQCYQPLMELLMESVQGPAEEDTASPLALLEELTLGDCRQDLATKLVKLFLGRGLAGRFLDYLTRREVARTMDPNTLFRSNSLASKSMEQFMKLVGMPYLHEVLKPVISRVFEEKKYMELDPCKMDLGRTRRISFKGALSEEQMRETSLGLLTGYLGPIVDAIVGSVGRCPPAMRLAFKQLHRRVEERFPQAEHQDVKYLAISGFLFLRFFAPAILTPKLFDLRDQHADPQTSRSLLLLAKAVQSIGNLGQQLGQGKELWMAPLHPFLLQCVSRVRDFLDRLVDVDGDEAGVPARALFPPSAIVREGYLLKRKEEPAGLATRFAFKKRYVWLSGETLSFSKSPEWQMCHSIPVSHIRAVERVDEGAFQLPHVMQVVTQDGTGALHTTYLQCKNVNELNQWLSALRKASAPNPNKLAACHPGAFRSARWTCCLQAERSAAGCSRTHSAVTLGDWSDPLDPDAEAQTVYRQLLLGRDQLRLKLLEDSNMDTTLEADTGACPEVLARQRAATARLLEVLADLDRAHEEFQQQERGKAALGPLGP
The assay is described as follows: ELISA; competitive ELISA: plate coated with rRas (10 µg/ml, pH 9.6 coating buffer); rRASAL1-His (1 µg/ml) mixed with rSTAT3 (1:50 to 1:3200), 37 °C 1 h; HRP anti-His Ab, absorbance at 450 nm; both purified. In general terms: ELISA stands for enzyme-linked immunosorbent assay.

Assay [9] concerns the target T2, Ras Protein Activator Like 1 (RASAL1), endogenous in human colon neutrophils (human (endogenous in colon neutrophils of UC patients)) (UniProt O95294).
T2 sequence: T1 sequence
The assay is described as follows: co-IP; protein extracts of neutrophils; anti-STAT3 Ab or anti-RASAL1 Ab as the precipitating Ab, Western blot.

The target in assay [10] is T3, Twist1 protein (TW1), endogenous in mouse colon neutrophils (mouse (endogenous in colon neutrophils of BALB/c mice)) (UniProt P26687).
T3 sequence: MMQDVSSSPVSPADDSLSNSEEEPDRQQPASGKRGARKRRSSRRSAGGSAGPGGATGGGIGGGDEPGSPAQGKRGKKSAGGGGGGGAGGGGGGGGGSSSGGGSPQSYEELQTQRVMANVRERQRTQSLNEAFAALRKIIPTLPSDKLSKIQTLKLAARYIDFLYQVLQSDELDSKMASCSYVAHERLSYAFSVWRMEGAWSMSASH
Briefly: co-IP; protein extracts of colon neutrophils of mice treated with hypoxia for one week; Western blot.

Turning to “recombinant (r) TW1 (from UniProt Q15672 1-202)”, the binding result in [1] was “binds”.

For “glucocorticoid receptor (GR)α, endogenous in cells isolated from human colon tissue (from UniProt P04150 1-777)”, the binding result in assay [2] was “no binding (condition: T cells of CR UC colon samples)”; in assay [3], “no binding (condition: B cells of CR UC colon samples)”; in assay [4], “no binding (condition: neutrophils of the CS group)”; in assay [5], “no binding (condition: eosinophils of CR UC colon samples)”; in [6] it was “no binding (condition: neutrophils of the NC group)”; in assay [7], “binds”.

On to “recombinant (r) STAT3 (from UniProt P40763 1-770)”, for which, in [8], the binding entry is “binds”.

With “STAT3 (Signal Transducer and Activator of Transcription-3), endogenous in human colon neutrophils (from UniProt P40763 1-770)”, in assay [9], the binding entry is reported as “binds”.

On to “glucocorticoid receptor α (GRα), endogenous in mouse colon neutrophils (from UniProt P06537 1-792)”, for which, in assay [10], the binding entry is “binds”.
